In the supplement of paper PMC12823440, “Inhibitors supercharge kinase turnover through native proteolytic circuits” (Nature, 2025):
Where a name gives a salt, the structure may show the parent alone. This is one part of the list. Hit calls seldom repeat between salt and free forms of one compound.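 In K562 cells expressing nanoluciferase-fused kinases, luminescence was recorded at 4 h intervals between 2 and 18 h, normalized as percent of control with DMSO at 100% and a positive control at 0%. A significant (2 sigma) signal drop marks a time point as decreased. The authors' rule for a hit is not shown and takes in more than the number of time points.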

Protein sequences, listed by entry. Tags and fused reporters are not part of them. Lines headed by an entry give the natural chain unless they say otherwise; changes in a name come on top.
UniProt Q16620, whole entry, looked up: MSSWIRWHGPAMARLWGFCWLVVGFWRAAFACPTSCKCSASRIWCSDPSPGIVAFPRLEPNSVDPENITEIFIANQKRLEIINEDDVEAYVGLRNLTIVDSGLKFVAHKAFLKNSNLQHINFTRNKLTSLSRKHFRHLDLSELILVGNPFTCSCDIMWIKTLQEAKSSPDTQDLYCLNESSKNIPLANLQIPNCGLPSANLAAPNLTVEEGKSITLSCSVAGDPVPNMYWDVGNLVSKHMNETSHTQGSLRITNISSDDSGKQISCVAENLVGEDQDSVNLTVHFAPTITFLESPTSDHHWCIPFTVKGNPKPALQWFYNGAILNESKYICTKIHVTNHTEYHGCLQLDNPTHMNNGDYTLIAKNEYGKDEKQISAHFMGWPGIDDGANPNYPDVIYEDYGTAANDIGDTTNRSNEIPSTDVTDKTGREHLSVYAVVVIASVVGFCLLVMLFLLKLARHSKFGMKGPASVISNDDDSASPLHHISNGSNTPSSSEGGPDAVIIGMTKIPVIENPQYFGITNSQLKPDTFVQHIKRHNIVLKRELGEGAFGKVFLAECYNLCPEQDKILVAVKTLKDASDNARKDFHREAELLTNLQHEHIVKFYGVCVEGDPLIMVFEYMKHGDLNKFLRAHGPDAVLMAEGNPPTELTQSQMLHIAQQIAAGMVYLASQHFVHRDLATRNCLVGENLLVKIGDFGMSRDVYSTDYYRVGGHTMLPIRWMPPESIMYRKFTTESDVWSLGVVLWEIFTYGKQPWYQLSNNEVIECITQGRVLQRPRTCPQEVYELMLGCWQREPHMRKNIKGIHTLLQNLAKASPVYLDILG
UniProt Q96KB5: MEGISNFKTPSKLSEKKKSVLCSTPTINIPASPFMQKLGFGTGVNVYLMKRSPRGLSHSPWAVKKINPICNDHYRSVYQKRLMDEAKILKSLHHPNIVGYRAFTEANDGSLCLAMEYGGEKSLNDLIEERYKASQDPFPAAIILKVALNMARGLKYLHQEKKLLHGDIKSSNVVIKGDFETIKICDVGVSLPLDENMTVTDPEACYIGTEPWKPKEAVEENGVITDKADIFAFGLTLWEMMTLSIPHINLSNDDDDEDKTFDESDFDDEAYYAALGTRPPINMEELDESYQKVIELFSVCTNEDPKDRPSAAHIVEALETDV
UniProt Q15118, whole entry, looked up: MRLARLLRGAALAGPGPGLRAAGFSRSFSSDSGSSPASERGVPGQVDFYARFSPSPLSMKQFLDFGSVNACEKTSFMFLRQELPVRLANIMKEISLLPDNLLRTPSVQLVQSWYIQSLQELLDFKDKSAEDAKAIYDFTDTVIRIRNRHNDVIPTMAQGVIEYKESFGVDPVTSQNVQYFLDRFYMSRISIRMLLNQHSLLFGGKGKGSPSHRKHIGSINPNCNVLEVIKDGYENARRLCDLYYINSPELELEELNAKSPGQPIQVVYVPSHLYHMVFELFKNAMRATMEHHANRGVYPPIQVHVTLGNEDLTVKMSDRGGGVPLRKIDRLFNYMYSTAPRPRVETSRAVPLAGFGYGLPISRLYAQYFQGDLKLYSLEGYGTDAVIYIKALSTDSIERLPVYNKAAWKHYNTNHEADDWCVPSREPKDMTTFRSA
UniProt P42356, whole entry, looked up: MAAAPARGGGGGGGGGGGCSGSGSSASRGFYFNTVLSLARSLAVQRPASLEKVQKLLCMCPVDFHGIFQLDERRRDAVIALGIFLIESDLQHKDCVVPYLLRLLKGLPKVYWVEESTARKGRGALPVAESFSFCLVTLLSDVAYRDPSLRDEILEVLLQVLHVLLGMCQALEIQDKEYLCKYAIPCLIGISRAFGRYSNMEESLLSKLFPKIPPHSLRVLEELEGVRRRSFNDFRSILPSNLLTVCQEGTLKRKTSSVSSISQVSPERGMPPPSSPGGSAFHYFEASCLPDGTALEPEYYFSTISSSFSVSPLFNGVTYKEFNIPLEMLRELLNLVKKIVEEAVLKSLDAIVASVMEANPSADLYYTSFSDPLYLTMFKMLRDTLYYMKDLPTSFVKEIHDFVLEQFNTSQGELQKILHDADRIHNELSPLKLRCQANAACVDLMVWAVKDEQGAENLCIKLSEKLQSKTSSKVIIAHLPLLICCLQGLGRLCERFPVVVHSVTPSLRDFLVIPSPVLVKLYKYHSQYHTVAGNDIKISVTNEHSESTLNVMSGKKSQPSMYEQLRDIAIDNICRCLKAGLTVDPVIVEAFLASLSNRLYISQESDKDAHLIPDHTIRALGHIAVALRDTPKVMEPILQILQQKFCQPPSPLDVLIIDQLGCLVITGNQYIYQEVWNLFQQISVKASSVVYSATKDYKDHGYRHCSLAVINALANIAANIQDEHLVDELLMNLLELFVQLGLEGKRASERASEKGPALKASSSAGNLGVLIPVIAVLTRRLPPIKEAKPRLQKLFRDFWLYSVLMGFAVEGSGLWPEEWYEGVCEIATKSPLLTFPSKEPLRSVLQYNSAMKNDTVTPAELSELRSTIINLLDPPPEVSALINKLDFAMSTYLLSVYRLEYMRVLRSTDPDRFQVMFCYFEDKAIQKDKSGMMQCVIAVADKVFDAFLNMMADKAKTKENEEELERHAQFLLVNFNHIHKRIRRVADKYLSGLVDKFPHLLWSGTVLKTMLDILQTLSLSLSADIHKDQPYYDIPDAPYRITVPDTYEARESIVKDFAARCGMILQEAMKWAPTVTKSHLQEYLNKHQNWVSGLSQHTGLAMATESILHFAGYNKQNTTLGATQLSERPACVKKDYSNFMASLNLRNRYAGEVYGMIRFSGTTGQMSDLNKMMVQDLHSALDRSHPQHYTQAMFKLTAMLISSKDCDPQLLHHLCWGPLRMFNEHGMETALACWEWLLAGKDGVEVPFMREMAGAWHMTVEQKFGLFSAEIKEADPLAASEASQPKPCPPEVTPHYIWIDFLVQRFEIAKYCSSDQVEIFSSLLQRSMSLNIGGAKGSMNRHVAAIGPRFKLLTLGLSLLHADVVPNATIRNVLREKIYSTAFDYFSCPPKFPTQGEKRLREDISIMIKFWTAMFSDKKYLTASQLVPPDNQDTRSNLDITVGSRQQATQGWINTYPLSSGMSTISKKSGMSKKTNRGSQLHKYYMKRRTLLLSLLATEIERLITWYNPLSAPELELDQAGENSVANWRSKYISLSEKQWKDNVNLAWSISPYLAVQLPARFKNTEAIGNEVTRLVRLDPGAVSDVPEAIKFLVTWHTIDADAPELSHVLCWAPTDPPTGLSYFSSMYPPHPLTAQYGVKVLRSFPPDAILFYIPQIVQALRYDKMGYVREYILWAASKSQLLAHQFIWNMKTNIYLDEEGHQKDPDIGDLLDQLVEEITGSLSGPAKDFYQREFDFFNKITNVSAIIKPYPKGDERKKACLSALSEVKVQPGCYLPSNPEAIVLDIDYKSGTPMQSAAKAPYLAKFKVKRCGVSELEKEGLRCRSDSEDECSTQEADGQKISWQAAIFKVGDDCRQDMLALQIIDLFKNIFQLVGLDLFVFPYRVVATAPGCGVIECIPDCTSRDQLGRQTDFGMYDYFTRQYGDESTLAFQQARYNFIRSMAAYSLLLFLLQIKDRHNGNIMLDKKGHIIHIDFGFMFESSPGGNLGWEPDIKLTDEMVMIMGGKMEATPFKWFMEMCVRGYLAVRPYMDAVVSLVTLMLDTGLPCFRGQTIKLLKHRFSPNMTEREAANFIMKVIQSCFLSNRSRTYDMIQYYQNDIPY
UniProt Q9UBF8: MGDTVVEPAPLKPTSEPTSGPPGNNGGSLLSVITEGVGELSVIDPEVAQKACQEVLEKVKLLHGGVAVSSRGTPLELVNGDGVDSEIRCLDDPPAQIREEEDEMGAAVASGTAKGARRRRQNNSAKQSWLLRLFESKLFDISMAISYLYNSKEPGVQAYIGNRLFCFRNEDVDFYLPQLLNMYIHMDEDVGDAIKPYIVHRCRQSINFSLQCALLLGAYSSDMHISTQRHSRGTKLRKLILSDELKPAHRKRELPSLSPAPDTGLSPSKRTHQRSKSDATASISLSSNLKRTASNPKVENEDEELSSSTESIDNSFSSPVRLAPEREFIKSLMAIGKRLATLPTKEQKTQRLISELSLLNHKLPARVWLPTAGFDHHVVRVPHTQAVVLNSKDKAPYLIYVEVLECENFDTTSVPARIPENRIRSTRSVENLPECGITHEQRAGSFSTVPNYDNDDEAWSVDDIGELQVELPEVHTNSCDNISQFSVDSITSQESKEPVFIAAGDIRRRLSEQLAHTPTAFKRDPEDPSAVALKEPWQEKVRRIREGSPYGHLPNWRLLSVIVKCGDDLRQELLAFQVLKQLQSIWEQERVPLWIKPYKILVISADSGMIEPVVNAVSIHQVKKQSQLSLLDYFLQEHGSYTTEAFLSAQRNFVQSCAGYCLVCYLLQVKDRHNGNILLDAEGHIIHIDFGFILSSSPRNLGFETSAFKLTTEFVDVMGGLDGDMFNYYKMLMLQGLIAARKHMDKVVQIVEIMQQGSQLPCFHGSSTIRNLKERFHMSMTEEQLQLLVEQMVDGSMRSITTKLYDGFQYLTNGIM
UniProt P53350, whole entry: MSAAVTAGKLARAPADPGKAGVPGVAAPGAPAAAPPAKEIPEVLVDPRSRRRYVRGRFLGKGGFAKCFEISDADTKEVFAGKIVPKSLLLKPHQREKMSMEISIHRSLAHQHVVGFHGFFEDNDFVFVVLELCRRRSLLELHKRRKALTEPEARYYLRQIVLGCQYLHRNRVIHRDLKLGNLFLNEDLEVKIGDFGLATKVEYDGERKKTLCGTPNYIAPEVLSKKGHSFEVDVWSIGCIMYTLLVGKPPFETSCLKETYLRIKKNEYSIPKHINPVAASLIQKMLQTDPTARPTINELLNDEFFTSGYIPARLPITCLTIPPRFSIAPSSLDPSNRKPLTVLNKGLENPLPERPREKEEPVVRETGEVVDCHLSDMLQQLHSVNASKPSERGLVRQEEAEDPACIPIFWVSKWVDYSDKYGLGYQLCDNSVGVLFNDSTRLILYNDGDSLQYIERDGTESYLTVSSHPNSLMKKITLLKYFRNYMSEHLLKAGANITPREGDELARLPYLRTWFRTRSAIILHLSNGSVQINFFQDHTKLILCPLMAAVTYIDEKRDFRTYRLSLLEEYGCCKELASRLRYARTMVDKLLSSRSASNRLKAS
UniProt Q13131: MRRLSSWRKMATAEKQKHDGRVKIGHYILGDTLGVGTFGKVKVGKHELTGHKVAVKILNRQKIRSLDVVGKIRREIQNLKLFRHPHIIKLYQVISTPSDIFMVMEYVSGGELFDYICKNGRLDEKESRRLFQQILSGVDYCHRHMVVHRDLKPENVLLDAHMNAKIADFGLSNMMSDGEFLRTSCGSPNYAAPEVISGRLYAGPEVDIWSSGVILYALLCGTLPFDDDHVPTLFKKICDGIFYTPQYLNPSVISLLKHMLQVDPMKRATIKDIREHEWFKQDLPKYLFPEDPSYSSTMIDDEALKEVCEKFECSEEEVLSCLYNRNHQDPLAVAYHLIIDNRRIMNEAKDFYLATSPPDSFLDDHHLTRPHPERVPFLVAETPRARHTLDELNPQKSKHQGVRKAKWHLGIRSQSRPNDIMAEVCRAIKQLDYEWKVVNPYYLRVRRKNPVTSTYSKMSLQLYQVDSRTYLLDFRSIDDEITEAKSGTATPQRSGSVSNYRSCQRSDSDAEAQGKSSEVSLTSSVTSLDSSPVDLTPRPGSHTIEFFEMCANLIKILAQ

Legend:
Test in all cases: kinase-Nluc reporter destabilization hit call (1 = scored as downregulated) (binary); higher = compound decreases kinase abundance
Settings in all cases: K562; 2-18 h
MAPK1 = MAPK1 (UniProt P28482)
MAPK4 = MAPK4 (UniProt P31152)
MAPKAPK2 = MAPKAPK2 (UniProt P49137)
MKNK1 = MKNK1 (UniProt Q9BUB5)
NTRK2 = NTRK2 (UniProt Q16620)
NTRK3 = NTRK3 (UniProt Q16288)
PAK4 = PAK4 (UniProt O96013)
PBK = PBK (UniProt Q96KB5)
PDGFRB = PDGFRB (UniProt P09619)
PDK1 = PDK1 (UniProt Q15118)
PDPK1 = PDPK1 (UniProt O15530)
PIK4CA = PIK4CA (UniProt P42356)
PIK4CB = PIK4CB (UniProt Q9UBF8)
PLK1 = PLK1 (UniProt P53350)
PRKAA1 = PRKAA1 (UniProt Q13131)
PRKCA = PRKCA (UniProt P17252)
PTK2 = PTK2 (UniProt Q05397)
PTK2B = PTK2B (UniProt Q14289)
RAF1 = RAF1 (UniProt P04049)
[1] = target: RAF1_S257L (clone: RAF1_mut) (UniProt P04049)

Row | Structure (SMILES) | kinase-Nluc reporter destabilization hit call (MAPK1) | kinase-Nluc reporter destabilization hit call (MAPK4) | kinase-Nluc reporter destabilization hit call (MAPKAPK2) | kinase-Nluc reporter destabilization hit call (MKNK1) | kinase-Nluc reporter destabilization hit call (NTRK2) | kinase-Nluc reporter destabilization hit call (NTRK3) | kinase-Nluc reporter destabilization hit call (PAK4) | kinase-Nluc reporter destabilization hit call (PBK) | kinase-Nluc reporter destabilization hit call (PDGFRB) | kinase-Nluc reporter destabilization hit call (PDK1) | kinase-Nluc reporter destabilization hit call (PDPK1) | kinase-Nluc reporter destabilization hit call (PIK4CA) | kinase-Nluc reporter destabilization hit call (PIK4CB) | kinase-Nluc reporter destabilization hit call (PLK1) | kinase-Nluc reporter destabilization hit call (PRKAA1) | kinase-Nluc reporter destabilization hit call (PRKCA) | kinase-Nluc reporter destabilization hit call (PTK2) | kinase-Nluc reporter destabilization hit call (PTK2B) | kinase-Nluc reporter destabilization hit call (RAF1) | kinase-Nluc reporter destabilization hit call [1]
1 | CNC(=O)c1ccc(-c2cnc3ncc(Cc4ccc5ncccc5c4)n3n2)cc1F [Capmatinib] (10 µM) | inactive: 0 | inactive: 0 | inactive: 0 | inactive: 0 | inactive: 0 | inactive: 0 | inactive: 0 | inactive: 0 | inactive: 0 | inactive: 0 | inactive: 0 | inactive: 0 | inactive: 0 | inactive: 0 | inactive: 0 | inactive: 0 | inactive: 0 | inactive: 0 | inactive: 0 | inactive: 0
2 | Nc1n[nH]c(N)c1N=Nc1ccc(O)cc1 (10 µM) | inactive: 0 | inactive: 0 | inactive: 0 | inactive: 0 | inactive: 0 | inactive: 0 | inactive: 0 | inactive: 0 | inactive: 0 | inactive: 0 | inactive: 0 | inactive: 0 | inactive: 0 | inactive: 0 | inactive: 0 | inactive: 0 | inactive: 0 | inactive: 0 | inactive: 0 | inactive: 0
3 | C[C@]1(O)C[C@@](N)(c2ccc(-c3nc4n(c3-c3ccccc3)COc3ccncc3-4)cc2)C1 [TAS-117 (hydrochloride)] (10 µM) | inactive: 0 | inactive: 0 | inactive: 0 | inactive: 0 | inactive: 0 | inactive: 0 | inactive: 0 | inactive: 0 | inactive: 0 | inactive: 0 | inactive: 0 | inactive: 0 | inactive: 0 | inactive: 0 | inactive: 0 | inactive: 0 | inactive: 0 | inactive: 0 | inactive: 0 | inactive: 0
4 | N#C/C(=C\c1ccc[nH]1)c1ccc(Cl)c(Cl)c1 (2.5 µM) | inactive: 0 | inactive: 0 | inactive: 0 | inactive: 0 | inactive: 0 | inactive: 0 | inactive: 0 | inactive: 0 | inactive: 0 | inactive: 0 | inactive: 0 | inactive: 0 | inactive: 0 | inactive: 0 | inactive: 0 | inactive: 0 | inactive: 0 | inactive: 0 | inactive: 0 | inactive: 0
5 | CC(C)(C)NS(=O)(=O)c1cncc(-c2cc(F)c3nc(N)nn3c2)c1 (10 µM) | inactive: 0 | inactive: 0 | inactive: 0 | inactive: 0 | inactive: 0 | inactive: 0 | inactive: 0 | inactive: 0 | inactive: 0 | inactive: 0 | inactive: 0 | inactive: 0 | inactive: 0 | inactive: 0 | inactive: 0 | inactive: 0 | inactive: 0 | inactive: 0 | inactive: 0 | inactive: 0
6 | CC(C)=C/C=C1\O[C@@H]2CC(C)=CC(=O)[C@@H]2[C@]1(C)O [Bisabolangelone] (10 µM) | inactive: 0 | inactive: 0 | inactive: 0 | inactive: 0 | inactive: 0 | inactive: 0 | inactive: 0 | inactive: 0 | inactive: 0 | inactive: 0 | inactive: 0 | inactive: 0 | inactive: 0 | inactive: 0 | inactive: 0 | inactive: 0 | inactive: 0 | inactive: 0 | inactive: 0 | inactive: 0
7 | CN1CCN(c2ccc(NC(=O)c3ccc(C#N)o3)c(N3CCCCC3)c2)CC1 (10 µM) | inactive: 0 | inactive: 0 | inactive: 0 | inactive: 0 | inactive: 0 | inactive: 0 | inactive: 0 | inactive: 0 | inactive: 0 | inactive: 0 | inactive: 0 | inactive: 0 | inactive: 0 | inactive: 0 | inactive: 0 | inactive: 0 | inactive: 0 | inactive: 0 | inactive: 0 | inactive: 0
8 | O=C1c2cccc(O)c2C(=O)c2c(O)cccc21 [Danthron] (10 µM) | inactive: 0 | inactive: 0 | inactive: 0 | inactive: 0 | inactive: 0 | inactive: 0 | inactive: 0 | inactive: 0 | inactive: 0 | inactive: 0 | inactive: 0 | inactive: 0 | inactive: 0 | inactive: 0 | inactive: 0 | inactive: 0 | inactive: 0 | inactive: 0 | inactive: 0 | inactive: 0
9 | COc1cc(-c2cnc(N)c(-c3ccc(NC(=O)c4cn(CC5CCOCC5)cc(-c5ccc(C)cn5)c4=O)cc3F)c2)ccc1OC[C@H]1COCCO1 [DS-1205b (free base)] (10 µM) | inactive: 0 | inactive: 0 | inactive: 0 | inactive: 0 | inactive: 0 | inactive: 0 | inactive: 0 | inactive: 0 | inactive: 0 | inactive: 0 | inactive: 0 | inactive: 0 | inactive: 0 | inactive: 0 | inactive: 0 | inactive: 0 | inactive: 0 | inactive: 0 | inactive: 0 | inactive: 0
10 | O=C(Nc1ncc(SCCN2CCCC2)s1)[C@]1(c2ccc(S(=O)(=O)C3CC3)cc2)C[C@H]1C1CCCCC1 [Globalagliatin] (2.5 µM) | inactive: 0 | inactive: 0 | inactive: 0 | inactive: 0 | inactive: 0 | inactive: 0 | inactive: 0 | inactive: 0 | inactive: 0 | inactive: 0 | inactive: 0 | inactive: 0 | inactive: 0 | inactive: 0 | inactive: 0 | inactive: 0 | inactive: 0 | inactive: 0 | inactive: 0 | inactive: 0
11 | O=C(Nc1nccs1)C(c1cc(F)ccc1O)N1Cc2ccccc2C1=O (stereo not given) (10 µM) | inactive: 0 | inactive: 0 | inactive: 0 | inactive: 0 | inactive: 0 | inactive: 0 | inactive: 0 | inactive: 0 | inactive: 0 | inactive: 0 | inactive: 0 | inactive: 0 | inactive: 0 | inactive: 0 | inactive: 0 | inactive: 0 | inactive: 0 | inactive: 0 | inactive: 0 | inactive: 0
12 | NC(=O)c1ccc2nc(-c3ccc(C4(N)CCC4)cc3)c(-c3ccccc3)n2n1 (10 µM) | inactive: 0 | inactive: 0 | inactive: 0 | inactive: 0 | inactive: 0 | inactive: 0 | inactive: 0 | inactive: 0 | inactive: 0 | inactive: 0 | inactive: 0 | inactive: 0 | inactive: 0 | inactive: 0 | inactive: 0 | inactive: 0 | inactive: 0 | inactive: 0 | inactive: 0 | inactive: 0
13 | CC(C)=CCC/C(C)=C/CC/C(C)=C/CSc1ccccc1C(=O)O [Salirasib] (10 µM) | inactive: 0 | inactive: 0 | inactive: 0 | inactive: 0 | inactive: 0 | inactive: 0 | inactive: 0 | inactive: 0 | inactive: 0 | inactive: 0 | inactive: 0 | inactive: 0 | inactive: 0 | inactive: 0 | inactive: 0 | inactive: 0 | inactive: 0 | inactive: 0 | inactive: 0 | inactive: 0
14 | O=C(Nc1cc(Cl)cc(Cl)c1)Nc1cc(Cl)cc(Cl)c1 (10 µM) | inactive: 0 | inactive: 0 | inactive: 0 | inactive: 0 | inactive: 0 | inactive: 0 | inactive: 0 | inactive: 0 | inactive: 0 | inactive: 0 | inactive: 0 | inactive: 0 | inactive: 0 | inactive: 0 | inactive: 0 | inactive: 0 | inactive: 0 | inactive: 0 | inactive: 0 | inactive: 0
15 | C[C@@]12CCc3occc3[C@H]1CC[C@@]13C[C@@H](CC[C@H]12)[C@@](O)(CO)C3 [Cafestol] (10 µM) | inactive: 0 | inactive: 0 | inactive: 0 | inactive: 0 | inactive: 0 | inactive: 0 | inactive: 0 | inactive: 0 | inactive: 0 | inactive: 0 | inactive: 0 | inactive: 0 | inactive: 0 | inactive: 0 | inactive: 0 | inactive: 0 | inactive: 0 | inactive: 0 | inactive: 0 | inactive: 0
16 | CNC[C@@H](NC(=O)c1ccc(-c2nc([C@H]3CC[C@H](O)[C@@H](F)C3)cnc2N)cc1F)c1cc(F)cc(Br)c1 [Rineterkib] (10 µM) | inactive: 0 | inactive: 0 | inactive: 0 | inactive: 0 | inactive: 0 | inactive: 0 | inactive: 0 | inactive: 0 | inactive: 0 | inactive: 0 | inactive: 0 | inactive: 0 | inactive: 0 | inactive: 0 | inactive: 0 | inactive: 0 | inactive: 0 | inactive: 0 | inactive: 0 | inactive: 0
17 | COc1cc2nccc(Oc3ccc(NC(=O)Nc4ccc(F)cc4F)c(F)c3)c2cc1OC (10 µM) | inactive: 0 | inactive: 0 | inactive: 0 | inactive: 0 | inactive: 0 | inactive: 0 | inactive: 0 | inactive: 0 | inactive: 0 | inactive: 0 | inactive: 0 | inactive: 0 | inactive: 0 | inactive: 0 | inactive: 0 | inactive: 0 | active: 1 | inactive: 0 | inactive: 0 | inactive: 0
18 | Clc1ccc(Nc2cccc(-c3cn[nH]c3)c2)cc1 (10 µM) | inactive: 0 | inactive: 0 | inactive: 0 | inactive: 0 | inactive: 0 | inactive: 0 | inactive: 0 | inactive: 0 | inactive: 0 | inactive: 0 | inactive: 0 | inactive: 0 | inactive: 0 | inactive: 0 | inactive: 0 | inactive: 0 | inactive: 0 | inactive: 0 | inactive: 0 | inactive: 0

Two entries picked at random from the list so far:
Row | Structure (SMILES) | kinase-Nluc reporter destabilization hit call (MAPK1) | kinase-Nluc reporter destabilization hit call (MAPK4) | kinase-Nluc reporter destabilization hit call (MAPKAPK2) | kinase-Nluc reporter destabilization hit call (MKNK1) | kinase-Nluc reporter destabilization hit call (NTRK2) | kinase-Nluc reporter destabilization hit call (NTRK3) | kinase-Nluc reporter destabilization hit call (PAK4) | kinase-Nluc reporter destabilization hit call (PBK) | kinase-Nluc reporter destabilization hit call (PDGFRB) | kinase-Nluc reporter destabilization hit call (PDK1) | kinase-Nluc reporter destabilization hit call (PDPK1) | kinase-Nluc reporter destabilization hit call (PIK4CA) | kinase-Nluc reporter destabilization hit call (PIK4CB) | kinase-Nluc reporter destabilization hit call (PLK1) | kinase-Nluc reporter destabilization hit call (PRKAA1) | kinase-Nluc reporter destabilization hit call (PRKCA) | kinase-Nluc reporter destabilization hit call (PTK2) | kinase-Nluc reporter destabilization hit call (PTK2B) | kinase-Nluc reporter destabilization hit call (RAF1) | kinase-Nluc reporter destabilization hit call [1]
4 | N#C/C(=C\c1ccc[nH]1)c1ccc(Cl)c(Cl)c1 (2.5 µM) | inactive: 0 | inactive: 0 | inactive: 0 | inactive: 0 | inactive: 0 | inactive: 0 | inactive: 0 | inactive: 0 | inactive: 0 | inactive: 0 | inactive: 0 | inactive: 0 | inactive: 0 | inactive: 0 | inactive: 0 | inactive: 0 | inactive: 0 | inactive: 0 | inactive: 0 | inactive: 0
14 | O=C(Nc1cc(Cl)cc(Cl)c1)Nc1cc(Cl)cc(Cl)c1 (10 µM) | inactive: 0 | inactive: 0 | inactive: 0 | inactive: 0 | inactive: 0 | inactive: 0 | inactive: 0 | inactive: 0 | inactive: 0 | inactive: 0 | inactive: 0 | inactive: 0 | inactive: 0 | inactive: 0 | inactive: 0 | inactive: 0 | inactive: 0 | inactive: 0 | inactive: 0 | inactive: 0
